Experimental data taken from publication PMC6370856, “Peptidyl prolyl cis/trans isomerase activity on the cell surface correlates with extracellular matrix development” (Communications Biology, 2019).
This continues a long series; more values of the same kind are listed elsewhere.

System: fibrin hydrogel
Test: Stiffness (storage modulus) of fibrin gel by rheometer
Method: To minimize sample evaporation at 37 °C, a tissue paper wet in HEPEs buffer (10 mM, pH 7.8) was placed inside the H-PTD chamber to increase the humidity. […] The cone and plate were treated with plasma for 5 min to increase the hydrophilicity of the metal surface.
Fibrin gel: Fibrinogen (Shanghai Laishi Xuezhipin Limited Company) was dissolved in PBS with a concentration of 22.2 mg mL^−1 overnight at room temperature with gentle shaking and aliquoted in protein low-binding tubes (45 µL per tube). […] Fifty microliters of thrombin (4 EU mL^−1 in PBS with 1.8 mM CaCl2) was added and pipetted up and down ten times. Then, it was transferred to the rheometer plate for measurement. […] For each condition, two independent experiments were performed (Fig. 1a and Supplementary Fig. 1).

CypA: recombinant cyclophilin A, a PPIase, expressed in E. coli
Storage Modulus Mean (1 micromolar CypA, 0.5 min): 45.818 Pa | Storage Modulus Mean (1 micromolar CypA, 1 min): 48.4905 Pa | Storage Modulus Mean (1 micromolar CypA, 2 min): 52.9685 Pa | Storage Modulus Mean (1 micromolar CypA, 2.5 min): 54.993 Pa | Storage Modulus Mean (1 micromolar CypA, 15.5 min): 79.1775 Pa | Storage Modulus Mean (1 micromolar CypA, 16 min): 79.6365 Pa | Storage Modulus Mean (1 micromolar CypA, 16.5 min): 80.152 Pa | Storage Modulus Mean (1 micromolar CypA, 17 min): 80.5265 Pa | Storage Modulus Mean (1 micromolar CypA, 17.5 min): 80.761 Pa | Storage Modulus Mean (1 micromolar CypA, 18 min): 81.103 Pa | Storage Modulus Mean (1 micromolar CypA, 18.5 min): 81.3165 Pa | Storage Modulus Mean (1 micromolar CypA, 19 min): 82 Pa | Storage Modulus Mean (1 micromolar CypA, 19.5 min): 82.816 Pa | Storage Modulus Mean (1 micromolar CypA, 20 min): 82.7485 Pa | Storage Modulus Mean (1 micromolar CypA, 20.5 min): 83.9135 Pa | Storage Modulus Mean (1 micromolar CypA, 21 min): 83.831 Pa | Storage Modulus Mean (1 micromolar CypA, 22 min): 84.392 Pa | Storage Modulus Mean (1 micromolar CypA, 22.5 min): 84.6935 Pa | Storage Modulus Mean (1 micromolar CypA, 23 min): 84.7675 Pa | Storage Modulus Mean (1 micromolar CypA, 23.5 min): 85.516 Pa | Storage Modulus Mean (1 micromolar CypA, 24 min): 85.767 Pa | Storage Modulus Mean (1 micromolar CypA, 24.5 min): 85.62 Pa | Storage Modulus Mean (1 micromolar CypA, 25 min): 85.593 Pa | Storage Modulus Mean (1 micromolar CypA, 25.5 min): 85.745 Pa | Storage Modulus Mean (1 micromolar CypA, 26 min): 85.9515 Pa | Storage Modulus Mean (1 micromolar CypA, 26.5 min): 86.447 Pa | Storage Modulus Mean (1 micromolar CypA, 27 min): 86.3105 Pa | Storage Modulus Mean (1 micromolar CypA, 27.5 min): 86.5165 Pa | Storage Modulus Mean (1 micromolar CypA, 28 min): 87.046 Pa | Storage Modulus Mean (1 micromolar CypA, 28.5 min): 87.6325 Pa | Storage Modulus Mean (1 micromolar CypA, 29 min): 87.5525 Pa | Storage Modulus Mean (1 micromolar CypA, 29.5 min): 88.015 Pa | Storage Modulus Mean (1 micromolar CypA, 30 min): 88.195 Pa | Storage Modulus Mean (3 micromolar CypA, 0.5 min): 45.9789 Pa | Storage Modulus Mean (3 micromolar CypA, 1 min): 49.0644 Pa | Storage Modulus Mean (3 micromolar CypA, 2 min): 53.4995 Pa | Storage Modulus Mean (3 micromolar CypA, 2.5 min): 55.1838 Pa | Storage Modulus Mean (3 micromolar CypA, 15.5 min): 84.8933 Pa | Storage Modulus Mean (3 micromolar CypA, 16 min): 85.5605 Pa | Storage Modulus Mean (3 micromolar CypA, 16.5 min): 86.6785 Pa | Storage Modulus Mean (3 micromolar CypA, 17 min): 87.0382 Pa | Storage Modulus Mean (3 micromolar CypA, 17.5 min): 87.6182 Pa | Storage Modulus Mean (3 micromolar CypA, 18 min): 88.2994 Pa | Storage Modulus Mean (3 micromolar CypA, 18.5 min): 88.7376 Pa | Storage Modulus Mean (3 micromolar CypA, 19 min): 89.3381 Pa | Storage Modulus Mean (3 micromolar CypA, 19.5 min): 89.8813 Pa | Storage Modulus Mean (3 micromolar CypA, 20 min): 90.0627 Pa | Storage Modulus Mean (3 micromolar CypA, 20.5 min): 90.5612 Pa | Storage Modulus Mean (3 micromolar CypA, 21 min): 91.1542 Pa | Storage Modulus Mean (3 micromolar CypA, 22 min): 91.9938 Pa | Storage Modulus Mean (3 micromolar CypA, 22.5 min): 92.8273 Pa | Storage Modulus Mean (3 micromolar CypA, 23 min): 92.9993 Pa | Storage Modulus Mean (3 micromolar CypA, 23.5 min): 93.2874 Pa | Storage Modulus Mean (3 micromolar CypA, 24 min): 93.7276 Pa | Storage Modulus Mean (3 micromolar CypA, 24.5 min): 94.5164 Pa | Storage Modulus Mean (3 micromolar CypA, 25 min): 94.846 Pa | Storage Modulus Mean (3 micromolar CypA, 25.5 min): 95.3103 Pa | Storage Modulus Mean (3 micromolar CypA, 26 min): 95.1809 Pa | Storage Modulus Mean (3 micromolar CypA, 26.5 min): 95.7882 Pa | Storage Modulus Mean (3 micromolar CypA, 27 min): 96.6688 Pa | Storage Modulus Mean (3 micromolar CypA, 27.5 min): 97.1011 Pa | Storage Modulus Mean (3 micromolar CypA, 28 min): 97.156 Pa | Storage Modulus Mean (3 micromolar CypA, 28.5 min): 98.5343 Pa | Storage Modulus Mean (3 micromolar CypA, 29 min): 99.0328 Pa | Storage Modulus Mean (3 micromolar CypA, 29.5 min): 100.228 Pa | Storage Modulus Mean (3 micromolar CypA, 30 min): 99.8878 Pa | Storage Modulus Mean (9 micromolar CypA, 0.5 min): 48.3835 Pa | Storage Modulus Mean (9 micromolar CypA, 1 min): 51.2215 Pa | Storage Modulus Mean (9 micromolar CypA, 2 min): 57.3525 Pa | Storage Modulus Mean (9 micromolar CypA, 2.5 min): 59.712 Pa | Storage Modulus Mean (9 micromolar CypA, 16 min): 97.514 Pa | Storage Modulus Mean (9 micromolar CypA, 16.5 min): 98.3775 Pa | Storage Modulus Mean (9 micromolar CypA, 17 min): 98.824 Pa | Storage Modulus Mean (9 micromolar CypA, 17.5 min): 99.915 Pa | Storage Modulus Mean (9 micromolar CypA, 18 min): 100.862 Pa | Storage Modulus Mean (9 micromolar CypA, 18.5 min): 102.139 Pa | Storage Modulus Mean (9 micromolar CypA, 19 min): 102.537 Pa | Storage Modulus Mean (9 micromolar CypA, 19.5 min): 103.419 Pa | Storage Modulus Mean (9 micromolar CypA, 20 min): 104.135 Pa | Storage Modulus Mean (9 micromolar CypA, 20.5 min): 104.868 Pa | Storage Modulus Mean (9 micromolar CypA, 21 min): 105.51 Pa | Storage Modulus Mean (9 micromolar CypA, 22 min): 107.135 Pa | Storage Modulus Mean (9 micromolar CypA, 22.5 min): 105.845 Pa | Storage Modulus Mean (9 micromolar CypA, 23 min): 108.225 Pa | Storage Modulus Mean (9 micromolar CypA, 23.5 min): 108.535 Pa | Storage Modulus Mean (9 micromolar CypA, 24 min): 109.33 Pa | Storage Modulus Mean (9 micromolar CypA, 24.5 min): 109.7 Pa | Storage Modulus Mean (9 micromolar CypA, 25 min): 110.57 Pa | Storage Modulus Mean (9 micromolar CypA, 25.5 min): 110.88 Pa | Storage Modulus Mean (9 micromolar CypA, 26 min): 111.675 Pa | Storage Modulus Mean (9 micromolar CypA, 26.5 min): 112.945 Pa | Storage Modulus Mean (9 micromolar CypA, 27 min): 113.825 Pa | Storage Modulus Mean (9 micromolar CypA, 27.5 min): 114.675 Pa | Storage Modulus Mean (9 micromolar CypA, 28 min): 115.035 Pa | Storage Modulus Mean (9 micromolar CypA, 28.5 min): 116.38 Pa | Storage Modulus Mean (9 micromolar CypA, 29 min): 117.535 Pa | Storage Modulus Mean (9 micromolar CypA, 29.5 min): 117.475 Pa | Storage Modulus Mean (9 micromolar CypA, 30 min): 118.305 Pa | Storage Modulus Mean (20 micromolar CypA, 0.5 min): 42.6015 Pa | Storage Modulus Mean (20 micromolar CypA, 1 min): 44.31 Pa | Storage Modulus Mean (20 micromolar CypA, 2 min): 46.824 Pa | Storage Modulus Mean (20 micromolar CypA, 2.5 min): 47.847 Pa | Storage Modulus Mean (20 micromolar CypA, 16 min): 60.5165 Pa | Storage Modulus Mean (20 micromolar CypA, 16.5 min): 60.939 Pa | Storage Modulus Mean (20 micromolar CypA, 17 min): 60.6445 Pa | Storage Modulus Mean (20 micromolar CypA, 17.5 min): 61.2835 Pa | Storage Modulus Mean (20 micromolar CypA, 18 min): 61.65 Pa | Storage Modulus Mean (20 micromolar CypA, 18.5 min): 61.665 Pa | Storage Modulus Mean (20 micromolar CypA, 19 min): 61.776 Pa | Storage Modulus Mean (20 micromolar CypA, 19.5 min): 62.2455 Pa | Storage Modulus Mean (20 micromolar CypA, 20 min): 62.674 Pa | Storage Modulus Mean (20 micromolar CypA, 20.5 min): 62.903 Pa | Storage Modulus Mean (20 micromolar CypA, 21 min): 63.1325 Pa | Storage Modulus Mean (20 micromolar CypA, 22 min): 63.405 Pa | Storage Modulus Mean (20 micromolar CypA, 22.5 min): 63.372 Pa | Storage Modulus Mean (20 micromolar CypA, 23 min): 64.3175 Pa | Storage Modulus Mean (20 micromolar CypA, 23.5 min): 64.6855 Pa | Storage Modulus Mean (20 micromolar CypA, 24 min): 65.3115 Pa | Storage Modulus Mean (20 micromolar CypA, 24.5 min): 65.306 Pa | Storage Modulus Mean (20 micromolar CypA, 25 min): 65.35 Pa | Storage Modulus Mean (20 micromolar CypA, 25.5 min): 65.5815 Pa | Storage Modulus Mean (20 micromolar CypA, 26.5 min): 66.185 Pa | Storage Modulus Mean (20 micromolar CypA, 27 min): 66.527 Pa | Storage Modulus Mean (20 micromolar CypA, 27.5 min): 66.8255 Pa | Storage Modulus Mean (20 micromolar CypA, 28 min): 66.954 Pa | Storage Modulus Mean (20 micromolar CypA, 28.5 min): 67.21 Pa | Storage Modulus Mean (20 micromolar CypA, 29 min): 67.2745 Pa | Storage Modulus Mean (20 micromolar CypA, 29.5 min): 67.3945 Pa | Storage Modulus Mean (20 micromolar CypA, 30 min): 67.5465 Pa
